This passage reports binding results from publication PMC2688274.

Results are given in words; binding and its absence hold for the method and conditions named. Binding can be weak; no strength is given.

This test addresses AGL74N-SEP2 dimer (Arabidopsis thaliana). The test is described as follows: yeast three-hybrid; yeast PJ69-4; dimer clones (one partner fused to GAL4-AD, the other to a nuclear localization signal only, pARC352) mated with single proteins fused to GAL4-BD; growth on -L -W -A -H with 1, 5 or 10 mM 3-AT at 20°C for 7 days, and LacZ assay.

B1: ARABIDOPSIS BSISTER, long splice form (ABS-I) (protein, UniProt Q8RYD9 1-252)
chain: MGRGKIEIKKIENQTARQVTFSKRRTGLIKKTRELSILCDAHIGLIVFSATGKLSEFCSEQNRMPQLIDRYLHTNGLRLPDHHDDQEQLHHEMELLRRETCNLELRLRPFHGHDLASIPPNELDGLERQLEHSVLKVRERKNELMQQQLENLSRKRRMLEEDNNNMYRWLHEHRAAMEFQQAGIDTKPGEYQQFIEQLQCYKPGEYQQFLEQQQQQPNSVLQLATLPSEIDPTYNLQLAQPNLQNDPTAQND
Take B1: the binding entry is listed as “binds”.
